PubChem BioAssay AID1259254 – NCATS | 2017
Assay: 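Finding genes that stop cells copying their DNA twice in one cycle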 (primary screen). System: human HCT116 colorectal cancer cells. Reagent: single siRNA against human genes. Duration: 3 days. Measured: 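Nuclei stained with Hoechst and imaged; cell-cycle phase assigned by DNA content; G2 share scaled per plate, non-targeting siRNA 0%, GMNN siRNA 100%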. Scale: G2 robust z-score and G2 cells, % of GMNN control: higher = more G2 cells, more excess DNA replication; raw share of cells in G2: higher = larger share of cells with G2 DNA content. Rule for the call: 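An siRNA counts as active if its G2 robust z-score lies at least 5 MADs above the screen median; here such calls match roughly 38% of GMNN control or more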.
Shown is a random part of about 59,000 reagents. About 1,550 of all reagents (2.6%) count as active. 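G2 share is only a proxy for re-replication; each gene was hit by three separate siRNAs, and active genes were retested.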 Raw values vary from plate to plate and are shown uncorrected. A number with no mark means an inactive call. Reagents against one gene are numbered here. Not given: the amount of reagent.

| target | siRNA no. | G2 robust z-score | G2 cells, % of GMNN control | raw share of cells in G2 (%) |
| --- | --- | --- | --- | --- |
| OR52E6 | 1 | -0.469 | -0.332 | 3.66 |
| OR52E6 | 2 | 0.512 | 6.57 | 6.26 |
| OR52E6 | 3 | 0.353 | 5.45 | 6.97 |
| ARHGDIA | 1 | -0.932 | -3.59 | 3.5 |
| ARHGDIA | 2 | 5.37 (active) | 40.7 | 19.2 |
| ARHGDIA | 3 | -0.392 | 0.21 | 5.15 |
| TMEM260 | 1 | 1.4 | 12.9 | 8.2 |
| TMEM260 | 2 | 0.0495 | 3.32 | 5.67 |
| TMEM260 | 3 | 2.26 | 18.9 | 9.44 |
| UTY | 1 | -0.0689 | 2.48 | 4.45 |
| UTY | 2 | -0.429 | -0.0522 | 4.82 |
| UTY | 3 | 0.0297 | 3.18 | 4.26 |
| NALF1 | 1 | 0.349 | 5.42 | 5.6 |
| NALF1 | 2 | -0.326 | 0.672 | 3.11 |
| NALF1 | 3 | -0.885 | -3.26 | 2.37 |
| KPNA2P2 | 1 | -0.64 | -1.54 | 2.6 |
| KPNA2P2 | 2 | 0.062 | 3.4 | 4.94 |
| KPNA2P2 | 3 | -0.705 | -1.99 | 2.66 |
| FAT3 | 1 | -0.485 | -0.442 | 5.47 |
| FAT3 | 2 | -0.194 | 1.6 | 5.65 |
| FAT3 | 3 | -0.829 | -2.86 | 3.4 |
| CCDC7 | 1 | 5.9 (active) | 44.4 | 14.5 |
| CCDC7 | 2 | -0.253 | 1.19 | 4.94 |
| CCDC7 | 3 | -0.33 | 0.648 | 4.59 |
| CCDC7 | 4 | 1.14 | 11 | 7.56 |
| CCDC7 | 5 | -0.666 | -1.72 | 2.54 |
| CCDC7 | 6 | 0.937 | 9.56 | 6.25 |
| MAP2K6 | 1 | -0.293 | 0.907 | 5.91 |
| MAP2K6 | 2 | -0.547 | -0.878 | 5.11 |
| MAP2K6 | 3 | -0.629 | -1.46 | 3.51 |
| DQX1 | 1 | 0.018 | 3.09 | 6 |
| DQX1 | 2 | -1.11 | -4.84 | 3.65 |
| DQX1 | 3 | 0.909 | 9.37 | 8.13 |
| KDM2B | 1 | 0.715 | 8 | 6.77 |
| KDM2B | 2 | -0.696 | -1.93 | 2.88 |
| KDM2B | 3 | -0.271 | 1.06 | 2.73 |
| SH3GLB1 | 1 | -0.257 | 1.16 | 4.3 |
| SH3GLB1 | 2 | 6.79 (active) | 50.7 | 23.7 |
| SH3GLB1 | 3 | 1.01 | 10.1 | 6.44 |
| GPR132 | 1 | -1.19 | -5.37 | 3.92 |
| GPR132 | 2 | 0.306 | 5.12 | 6.31 |
| GPR132 | 3 | 6.93 (active) | 51.7 | 19.1 |
| SI | 1 | -0.699 | -1.95 | 5.03 |
| SI | 2 | -0.173 | 1.75 | 5.15 |
| SI | 3 | -0.186 | 1.66 | 4.51 |
| ENOX1 | 1 | 1.52 | 13.6 | 12.4 |
| ENOX1 | 2 | 0.31 | 5.15 | 6.28 |
| ENOX1 | 3 | -0.239 | 1.28 | 4.87 |
| LURAP1 | 1 | -0.629 | -1.46 | 3.06 |
| LURAP1 | 2 | 1.75 | 15.3 | 9.21 |
| LURAP1 | 3 | -1.1 | -4.76 | 1.5 |
| ANAPC1P2 | 1 | 0.372 | 5.59 | 5.21 |
| ANAPC1P2 | 2 | 0.52 | 6.63 | 5.28 |
| ANAPC1P2 | 3 | -0.611 | -1.33 | 3.16 |
| PCMTD2 | 1 | 0.261 | 4.81 | 8.54 |
| PCMTD2 | 2 | 0.0423 | 3.26 | 5.61 |
| PCMTD2 | 3 | 2.21 | 18.5 | 12.1 |
| CEACAM3 | 1 | -0.129 | 2.06 | 4.33 |
| CEACAM3 | 2 | 0.153 | 4.05 | 7.2 |
| CEACAM3 | 3 | 0.363 | 5.52 | 6.11 |
| GATM | 1 | -1.37 | -6.68 | 2.81 |
| GATM | 2 | -0.694 | -1.91 | 4.53 |
| GATM | 3 | 3.39 | 26.8 | 13.2 |
| OR2A14 | 1 | -0.667 | -1.72 | 3.52 |
| OR2A14 | 2 | 8.7 (active) | 64.2 | 23.4 |
| OR2A14 | 3 | -0.689 | -1.88 | 1.9 |
| CYB561A3 | 1 | 0.41 | 5.85 | 5.7 |
| CYB561A3 | 2 | 2.59 | 21.2 | 10.4 |
| CYB561A3 | 3 | -0.173 | 1.75 | 3.75 |
